# Primary screen of a compound library

Each number is a percent effect as filed.
The controls that fix the scale are not given in the record; negative values are as filed.
This is an unselected part of the compounds tested.

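Whole-cell growth test on Mycobacterium tuberculosis, read after 4 days in a medium based on cholesterol and the lipid DPPC; the read-out is not stated. Compounds at 500 µM. Higher reads as more growth inhibition (inferred: compounds with an IC50 in retests scored well above the rest). Of about 18,000 compounds tested this way, about 900 (5%) reached 50% or more in at least one test.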

compound,percent effect
CCNc1ccc(C(F)(F)F)cn1,1.592
Cc1nn(C)cc1NC(=O)N1CCOC2(CCC2)C1,26.79
O=C(c1ccco1)N1CCCN(Cc2cscn2)CC1,78.72
Cn1cc(N)cc(Cl)c1=O,-136.5
Cc1ccc(CC(=O)N2CCC3(CC2)OCCO3)cn1,7.018
CCC(C)c1cc(C(=O)Nc2ncccc2O)on1 (stereo not shown),104.6
O=C(NCC1(O)CCNC1)c1cccc(OC(F)F)c1 (stereo not shown),12.79
Cc1ccccc1C(=O)NC1CCN(C)CC1,16.7
CSc1ccc(NC(=O)C(C)N2CCN(C)CC2)cn1 (stereo not shown),-3.441
CNc1cccnc1N1CCCC1,49.24
NCC1CCN(C2CCCCC2)C1 (stereo not shown),8.584
CCN(C(=O)CSC(F)(F)F)C1CCS(=O)(=O)C1 (stereo not shown),-6.843
O=C(c1cccnc1)c1ncc[nH]1,-13.26
CCNCC(=O)NC1CCS(=O)(=O)C1 (stereo not shown),4.002
C1CC(C2CNC2)CO1 (stereo not shown),7.816
Cc1nc(CCNC(=O)C2CNCCO2)sc1C (stereo not shown),-6.085
N#Cc1ccc(CCC(=O)NCc2cccnc2)cc1,-7.419
COCCc1noc(Cn2cc(I)cn2)n1,4.286
CCC(C)(C)OCC(O)CN1CCN(CCO)CC1 (stereo not shown),1.031
Cc1ccc(C(=O)N2CCOCC2CO)c(C)n1 (stereo not shown),8.505
CN1CCCC1CC(=O)NCc1ccc(CN)cc1 (stereo not shown),-9.357
O=C(Nc1ccccn1)NC1CCCCC12OCCO2 (stereo not shown),18.33
CCC=C(C)C(=O)NC1CCN(CC(=O)NC)CC1,-23.33
CC(O)C1CCN(CCC(=O)NC(C)(C)C)CC1 (stereo not shown),-4.793
O=C(Nc1cc(F)cc(F)c1)C1CCCCN1 (stereo not shown),19.28
CN(CC(=O)N(C)C)Cc1ccc(F)c2cccnc12,1.059
N#Cc1cccc(-c2csc(N)n2)c1,19.23
Cc1cc(NC(=O)CNC(C)c2ccncc2)n(C)n1 (stereo not shown),-6.666
Cc1noc(C)c1S(=O)(=O)N(C)Cc1ccoc1,15.33
NCc1ccc(-c2nc3cnccc3o2)cc1,14.41
COCCOC(=O)N1CCN2CCNC(=O)C2C1 (stereo not shown),-14.94
CN1CCC(CCO)C1 (stereo not shown),21.57
COCCCNC(=O)c1coc(Br)c1,54.82
OC1CCc2ccccc21 (stereo not shown),-3.399
CCNC(=O)N1CCCN(Cc2ccsc2)CC1,13.21
CCCC(=O)N(C)C1CCN(C)CC1,-12.62
Cn1nnnc1SCC(=O)Nc1cc(Cl)ccc1C#N,-5.115
COc1ccc(NC(=O)NCCNC(C)=O)cc1C#N,5.915
NCCc1ccc(-n2cccn2)cc1,48.49
O=C1CCN(S(=O)(=O)N2CCCCC2)CCN1,3.139
Cc1nc(CO)c2ccccn12,9.155
Cc1ccc(CN(C)C(=O)NCCC(=O)N(C)C)s1,-2.185
CC(C)CCOC1CCN(C(=O)c2ccncc2)C1 (stereo not shown),13.89
NC(=O)c1ccc(CNC2CCCc3sccc32)o1 (stereo not shown),24.05
O[C@H]1CCCc2c(F)cc(F)cc21,-0.9529
CC1(C#N)CCCNC1 (stereo not shown),-3.431
NC(=O)CN(Cc1ccc(Br)cc1)C(=O)C1CCOC1 (stereo not shown),6.486
COc1ccc(OC)c(-n2c(CCN)n[nH]c2=O)c1,-9.831
COc1cc(F)c(C(=O)NCC2CCCCO2)c(F)c1 (stereo not shown),24.04
NCCN1CCNC(=O)C1,-14.64
O=C(NCC1CCCO1)c1cc(-c2cccs2)on1 (stereo not shown),71.91
COCCCNCc1ccc(OC)cc1,11.05
Cc1cccc(C(=O)N2CCC3(CC2)OCCO3)n1,-13.54
COc1ccc(F)c(F)c1CN1CCCC(O)(CO)C1 (stereo not shown),15.28
CNC(=O)CNC(=O)Nc1c(C)cc(Br)cc1C,-1.337
Cn1cccc1C1COCCN1 (stereo not shown),-18.87
CC(=O)c1ccc(C#N)cc1F,8.358
Cc1cnn(CCNCCC(=O)NC(C)C)c1,6.116
Cc1nc(C)c(C(=O)NC(C)(C)C)s1,5.948
NS(=O)(=O)c1ccc2c(c1)N(Cc1ccon1)CC2,-12.04
COCC(O)CNc1ncc(Br)cn1 (stereo not shown),9.961
Cc1ccc(CC(C)N(C)C(=O)CCCN)cc1 (stereo not shown),-15.11
CCCc1nccn1CC(C)CS(C)(=O)=O (stereo not shown),6.807
CC(=O)NC(C(=O)Nc1cccc(C)n1)C(C)C (stereo not shown),-1.901
CS(=O)(=O)NCCNC(=O)c1ccc(C(F)(F)F)cc1,-17.65
CO[C@H]1CNCC1NC(=O)CCc1ccsc1 (stereo partly shown),-0.3634
CN(C)c1ccc(C(=O)N2CCC(O)CC2)cc1,7.151
CC(C)N(C)CC(=O)N1CCN(CC(C)(C)O)CC1,5.333
CCN(CC)C(=O)Nc1cc(C(N)=O)ccc1C,2.566
CCC(=O)Nc1cccc(C(=O)Nc2cc(C)on2)c1,-0.1975
Cn1c(CNC(=O)C2CCCOC2)nnc1C1CCC1 (stereo not shown),-5.679
CC(C)(C)OC(=O)N1CCOC(CO)C1 (stereo not shown),-18.5
Cn1ncnc1CS(=O)(=O)Cc1cccc(Cl)c1,-4.193
CN1CCN(C(=O)Nc2c(F)cc(F)cc2Br)CC1=O,-23.62
Cc1ccc(Cl)cc1NC(=O)CN1CCNC(=O)C1,-7.76
CCCS(=O)(=O)NC(Cc1ccccn1)[C@H]1C[C@@H](O)C1 (stereo partly shown),-19.74
CC(C)CC(C)(NCCCS(C)(=O)=O)C(N)=O (stereo not shown),-6.881
Cn1nc(Br)c2c(N)ncnc21,-10.59
Cc1c(Br)c(C(=O)NC(C)C)nn1C,25.43
Cc1ccc(C(=O)NC(C)Cn2cncn2)c(=O)[nH]1 (stereo not shown),-4.509
Cc1cc(C(=O)N2CCCN(C(C)(C)C)CC2)n(C)n1,-12.33
CC(NC(=O)c1ccccc1Cl)C(=O)NC1CC1 (stereo not shown),-6.947
NCc1ccc2c(N)noc2c1,14.93
CNC(=O)c1cc(C2CC2)nn1-c1ccccc1,27.61
COCC(NC1CCC2(CC1)OCCO2)c1ccco1 (stereo not shown),4.664
CC(N)CCS(C)(=O)=O (stereo not shown),12.22

Repeated from the top, 9 entries:

compound,percent effect
CCNc1ccc(C(F)(F)F)cn1,1.592
Cc1nn(C)cc1NC(=O)N1CCOC2(CCC2)C1,26.79
O=C(c1ccco1)N1CCCN(Cc2cscn2)CC1,78.72
Cn1cc(N)cc(Cl)c1=O,-136.5
Cc1ccc(CC(=O)N2CCC3(CC2)OCCO3)cn1,7.018
CCC(C)c1cc(C(=O)Nc2ncccc2O)on1 (stereo not shown),104.6
O=C(NCC1(O)CCNC1)c1cccc(OC(F)F)c1 (stereo not shown),12.79
Cc1ccccc1C(=O)NC1CCN(C)CC1,16.7
CSc1ccc(NC(=O)C(C)N2CCN(C)CC2)cn1 (stereo not shown),-3.441

Data taken from ChEMBL document CHEMBL3988442, “University of Dundee, Small-Polar-MMV Screening Library” (2021).